Results: PMC9021196
No constants are given. Whether binding was seen depends on the method and setting. Binding seen in cells or lysates may run through a third protein. Some binding calls cover weakened binding; strength is not graded here. For some assays here: Sequences can lack the tags named with a protein.

Legend:
[1] = molecular target: T1, NAD-dependent protein deacetylase Sirtuin 2 (SIRT2), endogenous (rat (endogenous in primary cortical neurons)) (UniProt Q5RJQ4); assay: co-IP; lysates of primary cultured neurons in RIPA (weak) buffer, IgG or anti-SIRT2 antibody (2 ug) at 4 °C overnight, protein G plus/protein A agarose 2 h, three washes, blot
T1 sequence: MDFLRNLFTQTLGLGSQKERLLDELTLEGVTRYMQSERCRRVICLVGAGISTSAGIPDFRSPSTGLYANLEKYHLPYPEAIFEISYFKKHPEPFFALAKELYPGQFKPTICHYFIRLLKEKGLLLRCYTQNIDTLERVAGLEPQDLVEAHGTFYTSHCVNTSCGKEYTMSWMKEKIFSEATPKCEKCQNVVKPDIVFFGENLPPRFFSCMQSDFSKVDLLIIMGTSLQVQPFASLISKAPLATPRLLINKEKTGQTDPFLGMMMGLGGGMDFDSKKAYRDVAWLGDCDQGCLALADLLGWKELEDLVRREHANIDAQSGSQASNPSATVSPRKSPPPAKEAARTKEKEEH

[2] = molecular target: T2, GST-SIRT2 (full-length human SIRT2, wild type) (human) (UniProt Q8IXJ6); assay: pull-down; lysates of primary culture neurons incubated with purified GST or GST-SIRT2 for 4 h at 4 °C, GST agarose beads 2 h at 4 °C, five washes, western blot; only the target purified
T2 sequence: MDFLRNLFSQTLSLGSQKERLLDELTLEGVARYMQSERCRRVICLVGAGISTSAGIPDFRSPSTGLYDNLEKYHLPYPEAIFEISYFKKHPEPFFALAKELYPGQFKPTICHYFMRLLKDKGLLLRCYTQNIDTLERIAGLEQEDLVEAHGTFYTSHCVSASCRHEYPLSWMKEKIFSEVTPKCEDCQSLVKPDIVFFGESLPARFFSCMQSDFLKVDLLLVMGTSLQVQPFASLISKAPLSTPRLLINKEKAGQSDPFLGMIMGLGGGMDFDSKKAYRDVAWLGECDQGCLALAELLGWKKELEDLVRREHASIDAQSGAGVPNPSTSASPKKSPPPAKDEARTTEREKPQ

Substance: cyclin-dependent kinase 5 (Cdk5), endogenous (from UniProt Q03114 1-292) (enzyme)
- binding [1]: binds
- binding [2]: binds
